Measurements reported in PubChem BioAssay AID1259308 (NCATS, 2017)

Aim: 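Candidate targets for better recombinant protein yield in mammalian cells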 (primary screen)
Cells: human HEK293 embryonic kidney cells stably expressing firefly luciferase (HEK-CMV-Luc2-Hygro)
Reagent: single siRNA against human genes, 0.8 pmol siRNA per well
Time to read-out: 72 h
Read-out: 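Luciferase light (ONE-Glo) measured on one replicate plate set and viability (CellTiter-Glo) on the other, scaled to a negative control siRNA, with robust z-scores and luciferase per cell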
Reading the numbers: total luciferase, z-score and total luciferase, % of control: higher = more reporter protein produced
Call rule: 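Active when the median/MAD z-score for overall luciferase is greater than 3; a gene was taken forward for validation with new siRNAs if at least two of its three siRNAs passed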
Meaning of the calls: active = raised luciferase; inactive = no rise
Shown is a random part of about 59,000 reagents. About 1,510 of all reagents (2.6%) were called active. 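Calls use total luciferase alone and ignore viability, so some active siRNAs may act by altering cell number.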 Unmarked entries are inactive. Reagents against one gene are numbered here. Not all columns of the deposit are shown.

PYDC2 (pyrin domain containing 2) #1 showed total luciferase, z-score 1.04; total luciferase, % of control 103.
With knock-down of PYDC2 (pyrin domain containing 2) #2, the screen gave total luciferase, z-score -0.458; total luciferase, % of control 72.8.
PYDC2 (pyrin domain containing 2) #3 gave total luciferase, z-score -1.23; total luciferase, % of control 57.4.
MROH6 (maestro heat like repeat family member 6) #1 showed total luciferase, z-score 0.0298; total luciferase, % of control 82.5.
Against MROH6 (maestro heat like repeat family member 6) #2, the values are total luciferase, z-score 0.306; total luciferase, % of control 88.
After knock-down of MROH6 (maestro heat like repeat family member 6) #3 the results were total luciferase, z-score -2.76; total luciferase, % of control 27.

Reprinted from above (2 entries):
PYDC2 (pyrin domain containing 2) #2: total luciferase, z-score = -0.458; total luciferase, % of control = 72.8
PYDC2 (pyrin domain containing 2) #3: total luciferase, z-score = -1.23; total luciferase, % of control = 57.4

More records follow:
Knock-down of OR56A5 (olfactory receptor family 56 subfamily A member 5) #1 resulted in: total luciferase, z-score 1.63; total luciferase, % of control 114.
Silencing of OR56A5 (olfactory receptor family 56 subfamily A member 5) #2 came out at: total luciferase, z-score 0.467; total luciferase, % of control 91.2.
OR56A5 (olfactory receptor family 56 subfamily A member 5) #3 gave total luciferase, z-score -0.24; total luciferase, % of control 77.1.
Against RAC2 (Rac family small GTPase 2) #1 the deposit lists total luciferase, z-score -0.875; total luciferase, % of control 64.5.
With knock-down of RAC2 (Rac family small GTPase 2) #2, the record shows total luciferase, z-score 0.119; total luciferase, % of control 84.3.
Against RAC2 (Rac family small GTPase 2) #3, the values are total luciferase, z-score -0.899; total luciferase, % of control 64.
